{"source": "PubChem BioAssay AID1159584 (Peter MacCallum Cancer Centre, 2016)", "test": "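Genes that CDH1-null MCF10A cells selectively depend on to survive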 (primary screen)", "system": "human MCF10A breast epithelial cells, parental and CDH1-null", "reagent": "siRNA against human genes", "read-out": "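Cell viability by CellTiter-Glo ATP luminescence, each line scaled to the mean of mock wells across plates, then CDH1-null over parental ratio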", "scale": "CDH1-null / parental viability ratio: higher = CDH1-null cells survive relatively better than parental; CDH1-null viability vs mock: higher = more viable CDH1-null cells", "note": "The deposit covers about 18,000 reagents; shown is a random part of them. Not all columns of the deposit are shown. Reagent sequences are not shown. The record does not give: the amount of reagent, the time to read-out."}
{"Gene":"NAA15","CDH1-null / parental viability ratio":0.87,"CDH1-null viability vs mock (fraction of mock)":0.7}
{"Gene":"PROM2","CDH1-null / parental viability ratio":1.07,"CDH1-null viability vs mock (fraction of mock)":0.9}
{"Gene":"RNFT2","CDH1-null / parental viability ratio":1.09,"CDH1-null viability vs mock (fraction of mock)":0.49}
{"Gene":"DRC10","CDH1-null / parental viability ratio":0.53,"CDH1-null viability vs mock (fraction of mock)":0.34}
{"Gene":"TAS2R8","CDH1-null / parental viability ratio":0.84,"CDH1-null viability vs mock (fraction of mock)":0.32}
{"Gene":"C1orf122","CDH1-null / parental viability ratio":0.86,"CDH1-null viability vs mock (fraction of mock)":0.76}
{"Gene":"COPS4","CDH1-null / parental viability ratio":1.01,"CDH1-null viability vs mock (fraction of mock)":0.88}
{"Gene":"RIOK1","CDH1-null / parental viability ratio":0.92,"CDH1-null viability vs mock (fraction of mock)":0.68}
{"Gene":"ATP5ME","CDH1-null / parental viability ratio":0.81,"CDH1-null viability vs mock (fraction of mock)":0.61}
{"Gene":"FOXM1","CDH1-null / parental viability ratio":1.11,"CDH1-null viability vs mock (fraction of mock)":0.78}
{"Gene":"MRFAP1L1","CDH1-null / parental viability ratio":0.86,"CDH1-null viability vs mock (fraction of mock)":0.83}
{"Gene":"SHOX2","CDH1-null / parental viability ratio":0.65,"CDH1-null viability vs mock (fraction of mock)":0.52}
{"Gene":"NELL2","CDH1-null / parental viability ratio":1.15,"CDH1-null viability vs mock (fraction of mock)":0.97}
{"Gene":"RAB17","CDH1-null / parental viability ratio":1.19,"CDH1-null viability vs mock (fraction of mock)":0.62}

Part of the list above in another layout.
{"Gene": "C1orf122", "CDH1-null / parental viability ratio": 0.86, "CDH1-null viability vs mock (fraction of mock)": 0.76}
{"Gene": "COPS4", "CDH1-null / parental viability ratio": 1.01, "CDH1-null viability vs mock (fraction of mock)": 0.88}

The list goes on.
{"Gene":"ZMYND10","CDH1-null / parental viability ratio":1.17,"CDH1-null viability vs mock (fraction of mock)":0.89}
{"Gene":"ENPP6","CDH1-null / parental viability ratio":0.66,"CDH1-null viability vs mock (fraction of mock)":0.6}
{"Gene":"OR9A4","CDH1-null / parental viability ratio":1.05,"CDH1-null viability vs mock (fraction of mock)":0.67}
{"Gene":"MICA","CDH1-null / parental viability ratio":1,"CDH1-null viability vs mock (fraction of mock)":0.87}
{"Gene":"SESN3","CDH1-null / parental viability ratio":0.98,"CDH1-null viability vs mock (fraction of mock)":0.94}
{"Gene":"NUP62CL","CDH1-null / parental viability ratio":0.83,"CDH1-null viability vs mock (fraction of mock)":1.02}
{"Gene":"FAM9C","CDH1-null / parental viability ratio":1.01,"CDH1-null viability vs mock (fraction of mock)":0.86}
{"Gene":"PPP4R4","CDH1-null / parental viability ratio":1.77,"CDH1-null viability vs mock (fraction of mock)":0.62}
{"Gene":"C9orf163","CDH1-null / parental viability ratio":0.93,"CDH1-null viability vs mock (fraction of mock)":0.7}
{"Gene":"SLC10A2","CDH1-null / parental viability ratio":0.98,"CDH1-null viability vs mock (fraction of mock)":0.94}
{"Gene":"PUS7L","CDH1-null / parental viability ratio":1.22,"CDH1-null viability vs mock (fraction of mock)":1.07}
{"Gene":"WASF3","CDH1-null / parental viability ratio":1.01,"CDH1-null viability vs mock (fraction of mock)":0.99}
{"Gene":"EYS","CDH1-null / parental viability ratio":0.97,"CDH1-null viability vs mock (fraction of mock)":0.93}
{"Gene":"CHST5","CDH1-null / parental viability ratio":1.34,"CDH1-null viability vs mock (fraction of mock)":0.59}
{"Gene":"AKAP11","CDH1-null / parental viability ratio":1,"CDH1-null viability vs mock (fraction of mock)":0.76}
{"Gene":"OR51A7","CDH1-null / parental viability ratio":0.67,"CDH1-null viability vs mock (fraction of mock)":0.55}
{"Gene":"GPS1","CDH1-null / parental viability ratio":0.48,"CDH1-null viability vs mock (fraction of mock)":0.24}
{"Gene":"TTBK1","CDH1-null / parental viability ratio":1.55,"CDH1-null viability vs mock (fraction of mock)":1.02}
{"Gene":"TUBB8","CDH1-null / parental viability ratio":1.26,"CDH1-null viability vs mock (fraction of mock)":0.68}
{"Gene":"DYNLRB1","CDH1-null / parental viability ratio":0.97,"CDH1-null viability vs mock (fraction of mock)":0.93}
{"Gene":"XIAP","CDH1-null / parental viability ratio":0.94,"CDH1-null viability vs mock (fraction of mock)":0.45}
